The text below walks through data of the supplement of paper PMC7024190.

The assay concerns HEK 293FT. As to the kind of experiment: log relative Renilla luciferase luminescence (reporter expression vs reference, reference not stated) (log (base not stated)); higher = higher recombinant reporter expression. The conditions noted are these: 10 µM; time after transfection 48 h. The method, then:
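HEK 293FT cells transiently transfected with pRL-TK (Renilla luciferase) were treated with compounds at 10 uM and luminescence was read about 42 h later. Values are log relative Renilla luminescence (log base and reference not stated). Single-pass screen; ICCB Known Bioactives library.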

SMILES strings stand for the structures. The list shows a part of the results. Repeats in this data set agree poorly, so a single value says little.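 A first-round screen of about ten thousand compounds sought those raising reporter output, using human embryonic kidney cells briefly transfected with a plasmid carrying a Renilla luciferase gene driven by the HSV-TK promoter.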

For `CC(C)CC(=O)N[C@H](C(=O)N[C@H](C(=O)N[C@@H](CC(C)C)[C@@H](O)CC(=O)N[C@@H](C)C(=O)N[C@@H](CC(C)C)[C@@H](O)CC(=O)O)C(C)C)C(C)C` [Pepstatin], the log was -0.41. Regarding `O=C1NCN(c2ccccc2)C12CCN(CCCC(c1ccc(F)cc1)c1ccc(F)cc1)CC2` [Fluspiriline], the log is -0.482.

For `CCCCCC(O)CCC1C(O)CC(=O)C1CCCCCCC(=O)O` (stereo not given) [13,14-Dihydro-prostaglandin E1], the log was -0.0108. In the case of `CCCCC/C=C\C/C=C\C/C=C\C/C=C\CCCC(=O)O[C@H](COCCCCCCCCCCCCCCCC)COP(=O)([O-])OCC[N+](C)(C)C` [Arachidonoyl-PAF], the log turned out to be 0.161.

Consider `Clc1cccc(Cl)c1NC1=NCCN1` [Clonidine], for which the log was 0.0106. `CCCCCC[C@@H]([C@@H](C)O)n1cnc2c(N)ncnc21`: the log was -0.482. Consider `COCCCCCCCCCCCC(=O)O` [12-Methoxydodecanoic acid], for which the log is 0.0772. Regarding `CCCCCCOC(=O)[C@]1(O)C[C@@H]2O[C@@]1(C)n1c3ccccc3c3c4c(c5c6ccccc6n2c5c31)C(=O)NC4`, the log was -0.128. With `O=C(O)c1cccnc1Nc1cccc(C(F)(F)F)c1` [Niflumic acid], the log is 0.0123.

Take `CCCCCCCCCCCCCCCC(=O)C1=C(O)[C@@H](CO)OC1=O`: the log is -0.00816. With `CCN(CC)CCNC(=O)c1ccc(N)cc1` [Procainamide], the log is 0.191. With `CC(=O)OCOC(c1cc([N+](=O)[O-])ccc1Oc1ccc(Br)cc1)P(=O)(OCOC(C)=O)OCOC(C)=O` (stereo not given), the log was -0.0343. On to `C=CCNC1=C2C[C@@H](C)C[C@H](OC)[C@H](O)[C@@H](C)/C=C(\C)[C@H](OC(N)=O)[C@@H](OC)/C=C\C=C(/C)C(=O)NC(=CC1=O)C2=O` [17-Allylamino-geldanamycin], for which the log was -0.514. `CCCCC[C@H](O)/C=C/[C@@H]1[C@@H](C/C=C\CCCC(=O)O)[C@@H](O)C[C@H]1O` [Prostaglandin F2a]: the log is -0.117. In the case of `CC/C=C\C/C=C\C/C=C\CCCCCCCC(=O)O` [Linolenic acid (18:3 n-3)], the log was -0.171.

As to `CC[C@H]1[C@@H]2C=C[C@@H]3[C@H]4C/C=C\C(=O)NCCC[C@@H]5NC(=O)C(=C5O)C(=O)CC[C@@H]4C[C@@H]3[C@H]2C[C@H]1C` [Ikarugamyin], the log was -0.0907.

As to `CC(C)C[C@@H](/C=C/S(C)(=O)=O)NC(=O)[C@H](CC(C)C)NC(=O)[C@H](CC(C)C)NC(=O)OCc1ccccc1`, the log was -1.63. Take `CCCCCC(O)CC=C1C(=O)C=CC1CC=CCCCC(=O)O` (stereo not given) [Delta 12-Prostaglandin J2]: the log stood at 0.137. Turning to `CCCCC/C=C\C\C=C/C=C/C=C/[C@@H](SC[C@H](N)C(=O)O)[C@@H](O)CCCC(=O)O` [Leukotriene E4], the log was -0.194.

Turning to `CCCC[C@@H](C=O)NC(=O)[C@H](CC(C)C)NC(=O)[C@H](CC(C)C)NC(C)=O`, the log was -0.176. Turning to `Cc1[nH]c(=O)c(C#N)cc1-c1ccncc1` [Milrinone], the log was -0.129.

Take `CCCCCCCCCC(=O)NC(CN1CCOCC1)C(O)c1ccccc1` (racemic): the log was -0.298.

With `CC[N+](C)(CC)CCC[n+]1c(-c2ccccc2)c2cc(N)ccc2c2ccc(N)cc21` [Propidium iodide], the log is -0.671. On to `O=C(O)CCCC=CCC1C(=O)CC(O)C1C=CC(O)CCc1ccccc1` (stereo not given) [17-Phenyl-trinor-prostaglandin E2], for which the log worked out at 0.14.

`O=C1Nc2ccccc2/C1=C1/Nc2ccccc2C1=O` [Indirubin]: the log was -0.25.

Take `C=C[C@H]1CN2CC[C@H]1C[C@H]2[C@H](O)c1ccnc2ccc(OC)cc12` [Quinine]: the log is 0.101.

With `O=C(O)c1ccccc1Nc1cccc(C(F)(F)F)c1` [Flufenamic acid], the log is 0.0822.

`CC(C)n1cnc2c(NCc3ccccc3)nc(NCCO)nc21` [N9-Isopropylolomoucine]: the log was found to be 0.344. Turning to `CCCCCC(=O)/C=C/C=C\CCCCCCCC(=O)O` [13-Ketooctadecadienoic acid], the log is -0.134. On to `O=C[C@@H]1CCCN1C(=O)[C@@H]1CCCN1C(=O)OCc1ccccc1` [Z-Prolyl-prolinal], for which the log is 0.203. Consider `CCCCCCCCCCCCCCC(F)C(=O)O` (stereo not given) [2-Fluoropalmitic acid], for which the log was found to be 0.202. As to `CCCCC/C=C\C/C=C\C/C=C\C/C=C\CCCC(=O)O` [Arachidonic acid (20:4, n-6)], the log was determined as 0.0437. With `CCCCCCCCC#CCC#CCC#CCCCC(=O)O` [5,8,11-Eicosatriynoic acid], the log was 0.235. Regarding `C[C@]12CC[C@@H]3c4ccc(O)cc4CC[C@H]3[C@@H]1CC[C@@H]2O` [Estradiol], the log came to 0.262. For the compound `CC(C(C)N1CC(=O)NC(=O)C1)N1CC(=O)NC(=O)C1` (stereo not given), the log was 0.532. Regarding `NC12CC3CC(CC(C3)C1)C2` [Amantidine], the log was found to be 0.0483. On to `Nc1ncnc2c1nc(Br)n2C1O[C@H]2COP(=O)(O)O[C@@H]2[C@@H]1O` (stereo not given in full) [Bromo-cAMP [8-Bromo-cAMP]], for which the log is -0.151. With `CC(=N)NCc1cccc(CN)c1`, the log was 0.255. The same measure for `COc1cc2ncnc(Nc3cccc(Cl)c3)c2cc1OC`: -0.447. With `O=C(O)CNC(=O)C(CS)Cc1ccccc1` (stereo not given) [Thiorphan], the log was 0.18. As for `CCCCC/C=C\C[C@@H](O)/C=C/c1cccc(C[C@@H](O)CCCCO)n1`, the log is -0.0782. On to `O=C(O)CCC/C=C\C[C@@H]1[C@@H](/C=C/[C@@H](O)COc2cccc(C(F)(F)F)c2)[C@H](O)C[C@@H]1O` (racemic) [Fluprostenol], for which the log was -0.127. On to `CCC(C)C(COC(Cc1ccccc1)C(=O)NC(CCS(C)(=O)=O)C(=O)OC(C)C)NCC(N)CS` (stereo not given), for which the log was found to be 0.325. In the case of `O=Cc1c2[nH]c3ccccc3c2cc2[nH]c3ccccc3c12` [6-Formylindolo [3,2-B] carbazole], the log came to 0.218. `CC(C)[C@@H]1NC(=O)[C@H](Cc2ccccc2)NC(=O)[C@@H](CC(=O)O)NC(=O)CNC(=O)[C@H](CCCN=C(N)N)NC1=O` [Cyclo [Arg-Gly-Asp-D-Phe-Val]]: the log was -0.151. For `CCCCCCCC/C=C\CCCCCCCC(=O)OC[C@H](CO)OC(C)=O` [1-Oleoyl-2-acetyl-glycerol], the log is 0.0468.

For the compound `CC[C@@]1(O)C(=O)OCc2c1cc1n(c2=O)Cc2cc3cc(O)ccc3nc2-1` [10-Hydroxycamptothecin], the log was -0.859. In the case of `C1CCCC2CCCN3CCC(CCCCCCC4CCCN5CCC(CC1)OC45)OC23` (stereo not given) [Xestospongin C], the log came to 0.0238. Consider `CCCCC/C=C/C=C1/C(=O)C=C[C@@H]1C/C=C\CCCC(=O)O` [15d-Prostaglandin J2], for which the log worked out at 0.121.

Take `CCCCC[C@H](O)/C=C/[C@@H]1[C@@H](C/C=C\CCCC(=O)O)[C@@H](O)C[C@@H]1O` [9alpha,11beta-Prostaglandin F2]: the log is -0.185. For the compound `CCCCC[C@H](O)/C=C/C=C\CCCCCCCC(=O)O`, the log was -0.0475.

As to `CCCCC/C=C\C/C=C\CCCCCCCC(=O)NCC(=O)O` [N-Linoleoylglycine], the log was -0.198. In the case of `CCCCCCCC/C=C\CCCCCCCCOC[C@H](COP(=O)([O-])OCC[N+](C)(C)C)OC(C)=O` it was 0.0181; in that of `CCCCCCCCCCCCCCCC(=O)N[C@@H](COP(=O)(O)O)C(=O)O`, -0.22. On to `Cc1ccc(N(CC2=NCCN2)c2cccc(O)c2)cc1` [Phentolamine], for which the log is -0.399.

On to `N/C(=N\C(=O)c1nc(Cl)c(N)nc1N)NCc1ccccc1` [Benzamil], for which the log was -0.0456. Turning to `CCCCCCCCCCCCCCCCOCC(CO)OC` (stereo not given) [1-Hexadecyl-2-O-methyl-glycerol], the log is 0.104. In the case of `CCCCCCCCCCCCCCCC(O)C(N)CO` (racemic) [DL-Dihydrosphingosine] it was 0.0279; in that of `COC(=O)[C@@H](N)CSC/C=C(\C)CC/C=C(\C)CCC=C(C)C` [S-Farnesyl-L-cysteine methyl ester], 0.0907.

For the compound `COc1ccc(C[C@H](N)C(=O)N[C@H]2[C@@H](O)[C@H](n3cnc4c(N(C)C)ncnc43)O[C@@H]2CO)cc1` [Puromycin], the log is -1.53. Take `NC(N)=NCCNS(=O)(=O)c1cccc2cnccc12`: the log turned out to be 0.183. With `CCCCCCCCCCCCC/C=C/[C@@H](O)[C@H](CO)NC(=O)CCCCCCC` [C8 Ceramide], the log is 0.26. Take `CN(C)C(=O)C(CCN1CCC(O)(c2ccc(Cl)cc2)CC1)(c1ccccc1)c1ccccc1` [Loperamide]: the log is 0.216. In the case of `CCCCC[C@H](O)/C=C/C1=C(C/C=C\CCCC(=O)O)C(=O)CC1` [Prostaglandin B2], the log came out at 0.0491.

For the compound `CC(=O)OCOC(=O)CN(CC(=O)OCOC(C)=O)c1ccccc1OCCOc1ccccc1N(CC(=O)OCOC(C)=O)CC(=O)OCOC(C)=O`, the log is -0.146. In the case of `CCCCCCCCCCCCCCC[C@@H](O)[C@H](CO)NC(=O)CCCCCCC` [C8 Dihydroceramide] it was 0.24; in that of `CCCCCC(O)C=CC1C(O)CC(O)C1CC=CCCCC(=O)O` (stereo not drawn) [9beta,11alpha-Prostaglandin F2], -0.0928. In the case of `CCCCc1oc2ccccc2c1C(=O)c1cc(I)c(OCCN(CC)CC)c(I)c1` [Amiodarone], the log was -0.165. Consider `CCCCCCCCCCCCCCCCOCC(CO)OC(C)=O` (stereo not given) [1-Hexadecyl-2-O-acetyl-glycerol], for which the log was -0.11. On to `CCCNCC(O)COc1ccccc1C(=O)CCc1ccccc1` (stereo not given) [Propafenone], for which the log worked out at 0.137. Regarding `Cc1ccc(S(=O)(=O)N[C@@H](Cc2ccccc2)C(=O)CCl)cc1` [Tosyl-Phe-CMK (TPCK)], the log is -0.173.

On to `CCCCCC(O)CCCC(=O)O` (stereo not given) [5-Hydroxydecanoate], for which the log is 0.0444. With `COC1=C2C[C@@H](C)C[C@H](OC)[C@H](O)[C@@H](C)/C=C(\C)[C@H](OC(N)=O)[C@@H](OC)/C=C\C=C(/C)C(=O)NC(=CC1=O)C2=O` [Geldanamycin], the log stood at 0.21. Turning to `N=C(NC(=O)c1nc(Cl)c(N)nc1N)Nc1ccccc1` [Phenamil], the log is -0.0134. As for `CCCCCCCCCCCCC(O)C(=O)O` (stereo not given) [2-Hydroxymyristic acid], the log is -0.116.
